Read-outs that look alike come from different tables or passages of the source. These are yes or no findings as the source states them, for the method shown. For some of these results: In cells and extracts the contact can be indirect. Some results given as binding are weak or reduced against the parent protein; the word gives no strength. For some of these results: Sequences can lack the tags named with a protein.
Tests used:
[1] = molecular target: p33 replication protein (split-ubiquitin bait, pGAD-BT2-N-His33) (not stated (TBSV p33 in the results; the p33 of pGBK-His33 is called CNV p33 in the methods)) (UniProt P15187); assay: two-hybrid; split-ubiquitin assay (Dualmembrane kit 3); bait p33 co-expressed with NubG prey proteins in wt (NMY51) or vps4Δ yeast; interactions scored by growth on Trp-/Leu-/His-/Ade- plates
[2] = molecular target: p33 replication protein (split-ubiquitin bait, pGAD-BT2-N-His33) (not stated (TBSV p33 in the results; the p33 of pGBK-His33 is called CNV p33 in the methods)) (UniProt P15187); assay: as above; remark: listed apart in the source
[3] = molecular target: p33 replication protein tagged with FLAG and 6xHis (p33HF) (not stated (TBSV p33 in the results; the p33 of pGBK-His33 is called CNV p33 in the methods)) (UniProt P15187); assay: co-IP; p33HF purified from yeast extracts on anti-FLAG M2 agarose (washing at room temperature); co-purified 6xHA-tagged proteins detected by Western blot with anti-HA antibody

By UniProt entry, the sequences of proteins in these tests, tags left out. Residues count along the entry.
UniProt P15187, residues 1-296: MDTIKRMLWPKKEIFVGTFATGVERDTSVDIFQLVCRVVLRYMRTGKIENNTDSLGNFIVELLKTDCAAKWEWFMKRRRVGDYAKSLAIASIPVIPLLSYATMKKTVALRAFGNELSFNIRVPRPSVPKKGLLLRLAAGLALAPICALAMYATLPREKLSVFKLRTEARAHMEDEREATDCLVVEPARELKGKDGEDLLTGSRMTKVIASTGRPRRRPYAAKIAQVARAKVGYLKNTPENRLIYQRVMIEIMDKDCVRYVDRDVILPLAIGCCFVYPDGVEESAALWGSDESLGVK
UniProt Q9FFY6, residues 1-175: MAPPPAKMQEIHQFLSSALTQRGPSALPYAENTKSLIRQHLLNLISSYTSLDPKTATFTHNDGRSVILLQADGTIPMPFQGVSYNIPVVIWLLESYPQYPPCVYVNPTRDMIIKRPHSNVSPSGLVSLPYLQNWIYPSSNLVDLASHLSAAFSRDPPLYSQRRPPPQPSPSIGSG
UniProt Q9LHG8, residues 1-186: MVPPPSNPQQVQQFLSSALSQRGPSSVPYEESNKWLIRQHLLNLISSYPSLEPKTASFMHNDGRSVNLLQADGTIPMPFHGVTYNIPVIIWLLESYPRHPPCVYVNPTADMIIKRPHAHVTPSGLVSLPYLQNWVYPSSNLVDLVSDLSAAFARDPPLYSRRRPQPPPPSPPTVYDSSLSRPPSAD
UniProt P10591: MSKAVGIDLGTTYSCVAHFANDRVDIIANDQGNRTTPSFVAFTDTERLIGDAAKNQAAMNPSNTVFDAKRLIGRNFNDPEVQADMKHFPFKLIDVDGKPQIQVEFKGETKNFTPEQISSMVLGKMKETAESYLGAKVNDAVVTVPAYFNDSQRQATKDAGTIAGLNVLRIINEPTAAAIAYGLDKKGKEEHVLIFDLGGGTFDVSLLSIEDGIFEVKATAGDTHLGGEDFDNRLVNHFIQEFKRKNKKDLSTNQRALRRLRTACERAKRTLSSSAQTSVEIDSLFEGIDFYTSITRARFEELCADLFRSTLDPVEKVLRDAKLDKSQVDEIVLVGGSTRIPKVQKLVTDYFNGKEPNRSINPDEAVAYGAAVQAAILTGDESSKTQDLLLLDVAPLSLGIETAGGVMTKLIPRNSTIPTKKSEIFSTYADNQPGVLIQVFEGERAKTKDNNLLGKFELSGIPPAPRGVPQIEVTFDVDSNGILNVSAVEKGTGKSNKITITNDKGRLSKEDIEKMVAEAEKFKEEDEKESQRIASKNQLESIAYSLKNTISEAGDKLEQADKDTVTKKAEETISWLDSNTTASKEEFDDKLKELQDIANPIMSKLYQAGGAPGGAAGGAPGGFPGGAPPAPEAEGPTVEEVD

A. thaliana UEV-2 (UEV domain of the Vps23p homologue At5g13860, aa 1-175) (from UniProt Q9FFY6 1-175) (domain or fragment)
binding [1]: binds

A. thaliana UEV-1 (UEV domain of the Vps23p homologue At3g12400, aa 1-186) (from UniProt Q9LHG8 1-186) (domain or fragment)
binding [1]: binds

Ssa1p, the yeast heat shock protein 70 (split-ubiquitin prey) (from UniProt P10591 1-642)
binding [1]: binds

B1: Vps23p ESCRT-I protein (yeast, split-ubiquitin prey pPR-N-VPS23) (protein, UniProt P25604 1-385)
chain: MSANGKISVPEAVVNWLFKVIQPIYNDGRTTFHDSLALLDNFHSLRPRTRVFTHSDGTPQLLLSIYGTISTGEDGSSPHSIPVIMWVPSMYPVKPPFISINLENFDMNTISSSLPIQEYIDSNGWIALPILHCWDPAAMNLIMVVQELMSLLHEPPQDQAPSLPPKPNTQLQQEQNTPPLPPKPKSPHLKPPLPPPPPPQPASNALDLMDMDNTDISPTNHHEMLQNLQTVVNELYREDVDYVADKILTRQTVMQESIARFHEIIAIDKNHLRAVEQAIEQTMHSLNAQIDVLTANRAKVQQFSSTSHVDDEDVNSIAVAKTDGLNQLYNLVAQDYALTDTIECLSRMLHRGTIPLDTFVKQGRELARQQFLVRWHIQRITSPLS
binding [2]: binds weakly

B2: HA-tagged Bro1p (Bro1-6xHA, chromosomal) (protein, UniProt P48582 1-844)
chain: MKPYLFDLKLKDTEKLDWKKGLSSYLKKSYGSSQWRTFYDEKATSELDHLRNNANGELAPSSLSEQNLKYYSFLEHLYFRLGSKGSRLKMDFTWYDAEYSSAQKGLKYTQHTLAFEKSCTLFNIAVIFTQIARENINEDYKNSIANLTKAFSCFEYLSENFLNSPSVDLQSENTRFLANICHAEAQELFVLKLLNDQISSKQYTLISKLSRATCNLFQKCHDFMKEIDDDVAIYGEPKWKTTVTCKLHFYKSLSAYYHGLHLEEENRVGEAIAFLDFSMQQLISSLPFKTWLVEFIDFDGFKETLEKKQKELIKDNDFIYHESVPAVVQVDSIKALDAIKSPTWEKILEPYMQDVANKCDSLYRGIIPLDVYEKESIYSEEKATLLRKQVEETETANLEYSSFIEFTNLPRLLSDLEKQFSDGNIFSNTDTQGQLMRDQIQTWCKFIQTNEFRDIEEQMNKIVFKRKQILEILSALPNDQKENVTKLKSSLVAASNSDEKLFACVKPHIVEINLLNDNGKIWKKFDEFNRNTPPQPSLLDIDDTKNDKILELLKQVKGHAEDLRTLKEERSRNLSELRDEINNDDITKLLIINKGKSDVELKDLFEVELEKFEPLSTRIEATIYKQSSMIDDIKAKLDEIFHLSNFKDKSSGEEKFLEDRKNFFDKLQEAVKSFSIFASDLPKGIEFYDSLFNMSRDLAERVRVAKQTEDSTANSPAPPLPPLDSKASVVGGPPLLPQKSAAFQSLSRQGLNLGDQFQNLKISAGSDLPQGPGIPPRTYEASPYAATPTMAAPPVPPKQSQEDMYDLRRRKAVENEERELQENPTSFYNRPSVFDENMYSKYSS
binding [3]: binds

B3: Bro1p accessory ESCRT protein (yeast, split-ubiquitin prey pPR-C-BRO1) (protein, UniProt P48582 1-844)
chain: MKPYLFDLKLKDTEKLDWKKGLSSYLKKSYGSSQWRTFYDEKATSELDHLRNNANGELAPSSLSEQNLKYYSFLEHLYFRLGSKGSRLKMDFTWYDAEYSSAQKGLKYTQHTLAFEKSCTLFNIAVIFTQIARENINEDYKNSIANLTKAFSCFEYLSENFLNSPSVDLQSENTRFLANICHAEAQELFVLKLLNDQISSKQYTLISKLSRATCNLFQKCHDFMKEIDDDVAIYGEPKWKTTVTCKLHFYKSLSAYYHGLHLEEENRVGEAIAFLDFSMQQLISSLPFKTWLVEFIDFDGFKETLEKKQKELIKDNDFIYHESVPAVVQVDSIKALDAIKSPTWEKILEPYMQDVANKCDSLYRGIIPLDVYEKESIYSEEKATLLRKQVEETETANLEYSSFIEFTNLPRLLSDLEKQFSDGNIFSNTDTQGQLMRDQIQTWCKFIQTNEFRDIEEQMNKIVFKRKQILEILSALPNDQKENVTKLKSSLVAASNSDEKLFACVKPHIVEINLLNDNGKIWKKFDEFNRNTPPQPSLLDIDDTKNDKILELLKQVKGHAEDLRTLKEERSRNLSELRDEINNDDITKLLIINKGKSDVELKDLFEVELEKFEPLSTRIEATIYKQSSMIDDIKAKLDEIFHLSNFKDKSSGEEKFLEDRKNFFDKLQEAVKSFSIFASDLPKGIEFYDSLFNMSRDLAERVRVAKQTEDSTANSPAPPLPPLDSKASVVGGPPLLPQKSAAFQSLSRQGLNLGDQFQNLKISAGSDLPQGPGIPPRTYEASPYAATPTMAAPPVPPKQSQEDMYDLRRRKAVENEERELQENPTSFYNRPSVFDENMYSKYSS
binding [2]: binds weakly

B4: HA-tagged UEV domain of Vps23p (UEV-6xHA, chromosomal) (domain or fragment, UniProt P25604 12-161)
chain: AVVNWLFKVIQPIYNDGRTTFHDSLALLDNFHSLRPRTRVFTHSDGTPQLLLSIYGTISTGEDGSSPHSIPVIMWVPSMYPVKPPFISINLENFDMNTISSSLPIQEYIDSNGWIALPILHCWDPAAMNLIMVVQELMSLLHEPPQDQAP
binding [3]: binds

From PMC2791863
